{"source": "paper PMC5663958", "about": "“DNA Ligase C and Prim-PolC participate in base excision repair in mycobacteria” (Nature Communications, 2017)", "biological_target": "mycobacterial eGFP-tagged endonuclease IV", "assay": "affinity purification with mass spectrometry", "note": "These are yes or no findings as the source states them, for the method shown. Binding seen in cells or lysates may run through a third protein. A yes stands for co-enrichment or nearness to the bait. Other partners may have been found."}
{"binder": "LigC of M. bovis BCG (enzyme, UniProt A0A1R3Y525 1-358) MQLPVMPPVSPMLAKSVTAIPPDASYEPKWDGFRSICFRDGDQVELGSRNERPMTRYFPELVAAIRAELPHRCVIDGEIIIATDHGLDFEALQQRIHPAESRVRMLADRTPASFIAFDLLALGDDDYTGRPFSERRAALVDAVTGSGADADLSIHVTPATTDMATAQRWFSEFEGAGLDGVIAKPPHITYQPDKRVMFKIKHLRTADCVVAGYRVHKSGSDAIGSLLLGLYQEDGQLASVGVIGAFPMAERRRLLTELQPLVTSFDDHPWNWAAHVAGQRTPRKNEFSRWNVGKDLSFVPLRPERVVEVRYDHMEGARFRHTAQFNRWRPDRDPRSCSYAQLERPLTVSLSDIVPGLR", "values": [{"measurement": "binding", "value": "binds"}]}
